# These are yes or no findings as the source states them, for the method shown. In cells and extracts the contact can be indirect. Here binding means that the protein was enriched with, or labelled near, the bait; the list need not be complete.
# Protein sequences, listed by entry. Tags and fused reporters are not part of them.
# UniProt P03496: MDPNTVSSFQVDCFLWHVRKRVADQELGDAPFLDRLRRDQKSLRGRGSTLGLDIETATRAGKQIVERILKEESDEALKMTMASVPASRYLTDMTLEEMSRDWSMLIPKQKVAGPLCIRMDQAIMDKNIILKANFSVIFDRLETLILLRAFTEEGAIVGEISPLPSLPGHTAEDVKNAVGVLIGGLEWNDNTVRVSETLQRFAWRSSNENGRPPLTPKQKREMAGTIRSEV
# UniProt Q9UKM9: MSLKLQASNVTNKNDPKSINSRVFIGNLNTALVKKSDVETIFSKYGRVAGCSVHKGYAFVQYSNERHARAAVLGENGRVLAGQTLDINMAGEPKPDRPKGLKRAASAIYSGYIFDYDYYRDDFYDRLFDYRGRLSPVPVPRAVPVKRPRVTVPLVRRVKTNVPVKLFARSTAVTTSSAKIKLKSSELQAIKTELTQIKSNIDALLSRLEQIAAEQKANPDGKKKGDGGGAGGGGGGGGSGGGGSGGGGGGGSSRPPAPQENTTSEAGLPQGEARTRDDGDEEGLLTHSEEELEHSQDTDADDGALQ
# UniProt P28370: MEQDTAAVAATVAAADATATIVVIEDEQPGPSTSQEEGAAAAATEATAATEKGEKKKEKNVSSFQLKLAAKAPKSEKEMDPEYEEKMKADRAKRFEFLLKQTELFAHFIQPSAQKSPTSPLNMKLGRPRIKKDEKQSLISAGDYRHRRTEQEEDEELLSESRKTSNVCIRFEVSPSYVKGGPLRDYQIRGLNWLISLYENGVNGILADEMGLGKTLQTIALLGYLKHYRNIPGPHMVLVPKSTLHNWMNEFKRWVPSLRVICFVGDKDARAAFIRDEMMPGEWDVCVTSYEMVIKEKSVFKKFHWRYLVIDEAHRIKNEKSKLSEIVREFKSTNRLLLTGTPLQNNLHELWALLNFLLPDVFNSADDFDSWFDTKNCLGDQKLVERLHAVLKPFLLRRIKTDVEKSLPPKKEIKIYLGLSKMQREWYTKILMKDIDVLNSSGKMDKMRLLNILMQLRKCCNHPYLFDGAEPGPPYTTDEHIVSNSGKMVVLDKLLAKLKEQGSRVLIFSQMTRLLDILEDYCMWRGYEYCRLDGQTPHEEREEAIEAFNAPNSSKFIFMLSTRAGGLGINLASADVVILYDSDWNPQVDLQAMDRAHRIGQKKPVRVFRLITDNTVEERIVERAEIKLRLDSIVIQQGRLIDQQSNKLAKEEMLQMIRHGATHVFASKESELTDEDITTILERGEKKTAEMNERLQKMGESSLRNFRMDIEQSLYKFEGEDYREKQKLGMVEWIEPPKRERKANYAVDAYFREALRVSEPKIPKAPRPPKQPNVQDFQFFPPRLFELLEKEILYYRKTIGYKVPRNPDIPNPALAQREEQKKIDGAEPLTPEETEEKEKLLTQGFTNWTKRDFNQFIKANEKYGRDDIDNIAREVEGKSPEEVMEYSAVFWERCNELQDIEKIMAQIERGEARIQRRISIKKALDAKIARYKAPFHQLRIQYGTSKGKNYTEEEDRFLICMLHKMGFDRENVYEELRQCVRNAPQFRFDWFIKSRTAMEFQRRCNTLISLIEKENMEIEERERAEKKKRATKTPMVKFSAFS
# What was measured:
# [1] = target: viral NS1 protein of PR8/H1N1 virus in infected cells (influenza A virus A/Puerto Rico/8/34 (H1N1) (PR8)) (UniProt P03496); test: affinity purification with mass spectrometry
# [2] = target: Flag-tagged NS1 (influenza A virus (strain of the plasmid not stated; PR8/H1N1 used throughout)) (UniProt P03496); test: affinity purification with mass spectrometry
substance,measurement,setting,value
RALY (from UniProt Q9UKM9 1-306),binding,[1],binds
same,binding,[2],binds
SNF2L (from UniProt P28370 1-1042),binding,[1],binds
same,binding,[2],binds
